From patent US20100297623A1
Results are given in words; binding and its absence hold for the method and conditions named. Binding seen in cells or lysates may run through a third protein. Some results given as binding are weak or reduced against the parent protein; the word gives no strength.

Protein sequences, listed by entry. Tags and fused reporters are not part of them. Lines headed by an entry give the natural chain unless they say otherwise; changes in a name come on top.
UniProt P49959: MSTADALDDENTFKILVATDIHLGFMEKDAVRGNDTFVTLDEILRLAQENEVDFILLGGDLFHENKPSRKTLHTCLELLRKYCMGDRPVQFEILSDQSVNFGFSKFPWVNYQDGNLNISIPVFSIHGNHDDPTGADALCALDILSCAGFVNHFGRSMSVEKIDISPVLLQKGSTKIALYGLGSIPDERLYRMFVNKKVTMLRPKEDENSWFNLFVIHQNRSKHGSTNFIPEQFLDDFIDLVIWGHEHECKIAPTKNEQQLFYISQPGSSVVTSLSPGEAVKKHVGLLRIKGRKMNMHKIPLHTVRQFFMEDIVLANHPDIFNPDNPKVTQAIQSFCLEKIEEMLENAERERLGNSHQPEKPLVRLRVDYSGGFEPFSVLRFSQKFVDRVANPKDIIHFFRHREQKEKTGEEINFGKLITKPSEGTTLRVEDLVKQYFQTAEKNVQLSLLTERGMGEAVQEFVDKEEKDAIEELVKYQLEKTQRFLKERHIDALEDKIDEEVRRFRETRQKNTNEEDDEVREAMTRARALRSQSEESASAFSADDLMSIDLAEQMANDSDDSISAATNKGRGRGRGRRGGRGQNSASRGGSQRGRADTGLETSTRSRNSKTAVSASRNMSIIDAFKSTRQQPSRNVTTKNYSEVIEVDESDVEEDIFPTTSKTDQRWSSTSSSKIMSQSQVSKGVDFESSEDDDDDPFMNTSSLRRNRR
UniProt Q9BQ15: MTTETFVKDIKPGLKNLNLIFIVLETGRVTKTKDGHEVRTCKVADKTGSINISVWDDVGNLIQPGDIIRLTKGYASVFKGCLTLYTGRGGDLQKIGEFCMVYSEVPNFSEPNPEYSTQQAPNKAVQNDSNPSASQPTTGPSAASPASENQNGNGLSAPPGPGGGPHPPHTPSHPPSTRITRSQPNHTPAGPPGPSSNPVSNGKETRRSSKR

Target: Mre11-Rad50-Nbs1 (MRN) complex (UniProt P49959)
Assay: assay not given; paragraph 116 describes a pull-down on streptavidin beads with biotinylated NBS1

binding: binds
Substance: human ssDNA binding protein 1 (hSSB1) (from UniProt Q9BQ15 1-211)
